In this experiment the target is SARS-CoV-2-encoded translational regulator Nsp1 (SARS-CoV-2) (UniProt P0DTD1). The experiment is described as follows: co-IP; lysates of cancer cells in NP40 IP-lysis buffer with protease inhibitors; primary antibody overnight at 4 °C, A/G agarose beads 2 h, three washes in PBS; western blot; 5× of input sample used; which protein was precipitated not given. Background: Immunoblotting shows a protein as a band on a membrane.

Results are given in words; binding and its absence hold for the method and conditions named. In cells and extracts the contact can be indirect. Some binding calls cover weakened binding; strength is not graded here.

As to ASCC3 (from UniProt Q8N3C0 1-2202), the binding result was “binds”.

The values are drawn from publication PMC11330866.
